Reference: publication PMC9385660
These are yes or no findings as the source states them, for the method shown. In cells and extracts the contact can be indirect. Some entries that bind do so weakly or less than the wild type. For some of these results: Where a sequence is shown, tags or fusion partners need not be part of it.

Protein sequences, listed by entry. Tags and fused reporters are not part of them. Lines headed by an entry give the natural chain unless they say otherwise; changes in a name come on top.
UniProt P11983: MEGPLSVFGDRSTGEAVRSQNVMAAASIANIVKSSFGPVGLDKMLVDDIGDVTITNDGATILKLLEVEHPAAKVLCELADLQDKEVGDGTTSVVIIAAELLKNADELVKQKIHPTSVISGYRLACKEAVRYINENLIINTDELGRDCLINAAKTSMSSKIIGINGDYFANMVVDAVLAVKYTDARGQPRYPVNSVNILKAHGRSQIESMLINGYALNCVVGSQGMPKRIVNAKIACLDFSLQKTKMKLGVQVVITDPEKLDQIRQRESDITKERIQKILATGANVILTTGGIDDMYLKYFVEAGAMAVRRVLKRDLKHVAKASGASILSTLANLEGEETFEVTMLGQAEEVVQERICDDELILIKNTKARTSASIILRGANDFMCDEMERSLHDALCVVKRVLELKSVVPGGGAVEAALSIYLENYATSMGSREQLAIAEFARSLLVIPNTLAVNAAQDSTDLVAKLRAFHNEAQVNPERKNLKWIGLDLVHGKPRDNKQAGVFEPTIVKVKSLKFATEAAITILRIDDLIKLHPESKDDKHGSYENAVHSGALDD
UniProt P50516: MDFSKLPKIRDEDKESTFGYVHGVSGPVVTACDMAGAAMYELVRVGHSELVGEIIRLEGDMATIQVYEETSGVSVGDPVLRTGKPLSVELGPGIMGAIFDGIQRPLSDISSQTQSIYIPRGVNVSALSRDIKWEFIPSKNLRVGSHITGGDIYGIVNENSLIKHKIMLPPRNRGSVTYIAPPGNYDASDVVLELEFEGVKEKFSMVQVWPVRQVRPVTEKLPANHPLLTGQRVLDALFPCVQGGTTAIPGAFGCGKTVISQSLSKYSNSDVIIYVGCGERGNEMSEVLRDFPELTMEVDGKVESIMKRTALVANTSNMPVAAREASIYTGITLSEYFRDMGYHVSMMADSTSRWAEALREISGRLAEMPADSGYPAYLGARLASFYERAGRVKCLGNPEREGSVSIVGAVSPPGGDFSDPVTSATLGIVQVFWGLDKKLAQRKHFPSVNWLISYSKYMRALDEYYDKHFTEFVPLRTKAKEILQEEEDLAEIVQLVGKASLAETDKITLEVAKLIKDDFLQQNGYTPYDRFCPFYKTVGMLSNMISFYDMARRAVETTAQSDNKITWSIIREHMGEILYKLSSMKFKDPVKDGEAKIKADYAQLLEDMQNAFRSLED
UniProt P21281: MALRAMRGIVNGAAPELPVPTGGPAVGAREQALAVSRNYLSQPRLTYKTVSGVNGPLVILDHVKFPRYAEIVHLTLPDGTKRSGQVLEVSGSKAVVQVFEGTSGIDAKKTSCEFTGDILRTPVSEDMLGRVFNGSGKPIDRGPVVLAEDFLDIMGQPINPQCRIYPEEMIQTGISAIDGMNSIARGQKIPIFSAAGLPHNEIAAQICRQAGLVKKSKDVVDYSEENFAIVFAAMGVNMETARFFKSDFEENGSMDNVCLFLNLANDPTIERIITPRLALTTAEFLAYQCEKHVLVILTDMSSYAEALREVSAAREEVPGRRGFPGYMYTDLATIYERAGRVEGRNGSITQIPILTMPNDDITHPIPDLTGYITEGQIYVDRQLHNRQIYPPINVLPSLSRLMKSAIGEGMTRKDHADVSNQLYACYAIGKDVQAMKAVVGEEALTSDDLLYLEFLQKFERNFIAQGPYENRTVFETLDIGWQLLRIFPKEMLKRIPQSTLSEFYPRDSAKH

What was measured:
[1] = biological target: Flag-tagged variant of the TRiC subunit Cct1 (mouse) (UniProt P11983); test: co-IP; Flag-tagged Cct1 or Cct2 immunoprecipitated; V1A and V1B2 detected; amino acid starvation and restimulation (Supplementary Fig. 6c)
[2] = biological target: T1, Flag-tagged variant of the TRiC subunit Cct2 (mouse) (UniProt P80314); test: as above
T1 sequence: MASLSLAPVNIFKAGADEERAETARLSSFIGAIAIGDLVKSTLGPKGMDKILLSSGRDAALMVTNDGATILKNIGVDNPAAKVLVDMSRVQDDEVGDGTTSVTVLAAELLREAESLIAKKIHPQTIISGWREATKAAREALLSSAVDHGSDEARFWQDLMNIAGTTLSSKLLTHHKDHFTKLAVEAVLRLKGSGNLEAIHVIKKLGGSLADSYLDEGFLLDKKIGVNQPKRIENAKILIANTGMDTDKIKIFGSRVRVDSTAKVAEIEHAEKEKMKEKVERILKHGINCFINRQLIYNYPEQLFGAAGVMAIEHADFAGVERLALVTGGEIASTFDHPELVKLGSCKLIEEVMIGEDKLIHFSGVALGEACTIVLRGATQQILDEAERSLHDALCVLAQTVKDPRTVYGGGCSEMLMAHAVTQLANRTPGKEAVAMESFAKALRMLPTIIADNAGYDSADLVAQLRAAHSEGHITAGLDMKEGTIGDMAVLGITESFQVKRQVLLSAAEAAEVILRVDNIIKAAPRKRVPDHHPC

How did the binding [1] turn out when “V-ATPase V1 domain subunit V1A (from UniProt P50516 1-617)” was run?
The binding was “binds”.

And the binding [2]?
The binding was “binds”.

How did the binding [1] turn out when “HA-tagged V1B2 (V-ATPase V1 domain subunit B2, ATP6V1B2) (from UniProt P21281 1-511)” was run?
Its binding is “binds”.

And the binding [2]?
Its binding is “binds”.
